# According to the supplement of paper PMC12819154, “High-throughput peptide-centric local stability assay extends protein–ligand identification to membrane proteins, tissues and bacteria” (Nature Structural & Molecular Biology, 2025):
# Sequences of proteins named here, by UniProt entry; tags and fusion partners are left off. A change or cut given only in a name is not applied to a line headed by its entry.
# UniProt Q9H0E7: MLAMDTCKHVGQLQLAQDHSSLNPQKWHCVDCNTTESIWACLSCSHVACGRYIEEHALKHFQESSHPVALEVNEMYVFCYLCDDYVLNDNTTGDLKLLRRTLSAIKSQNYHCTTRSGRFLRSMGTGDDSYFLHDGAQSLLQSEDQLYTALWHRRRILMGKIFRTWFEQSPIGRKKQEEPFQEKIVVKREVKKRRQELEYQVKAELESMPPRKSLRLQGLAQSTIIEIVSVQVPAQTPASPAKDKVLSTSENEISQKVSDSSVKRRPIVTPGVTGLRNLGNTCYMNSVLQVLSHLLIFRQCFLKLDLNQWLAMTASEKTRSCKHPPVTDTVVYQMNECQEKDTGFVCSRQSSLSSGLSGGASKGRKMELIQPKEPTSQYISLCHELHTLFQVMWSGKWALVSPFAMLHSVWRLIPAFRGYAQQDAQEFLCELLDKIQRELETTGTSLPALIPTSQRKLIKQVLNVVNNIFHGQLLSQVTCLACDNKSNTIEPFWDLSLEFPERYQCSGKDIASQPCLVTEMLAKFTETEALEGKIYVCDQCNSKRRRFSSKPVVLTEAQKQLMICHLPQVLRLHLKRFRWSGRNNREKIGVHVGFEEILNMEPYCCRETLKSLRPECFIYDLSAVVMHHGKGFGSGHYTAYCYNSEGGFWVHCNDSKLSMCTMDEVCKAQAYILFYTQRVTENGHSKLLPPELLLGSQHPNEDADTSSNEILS
# UniProt Q9BYN0: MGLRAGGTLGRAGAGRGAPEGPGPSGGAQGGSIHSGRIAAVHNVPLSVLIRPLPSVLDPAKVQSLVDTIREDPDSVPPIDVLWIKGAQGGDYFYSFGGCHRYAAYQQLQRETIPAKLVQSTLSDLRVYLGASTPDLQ
# UniProt Q9BZE2: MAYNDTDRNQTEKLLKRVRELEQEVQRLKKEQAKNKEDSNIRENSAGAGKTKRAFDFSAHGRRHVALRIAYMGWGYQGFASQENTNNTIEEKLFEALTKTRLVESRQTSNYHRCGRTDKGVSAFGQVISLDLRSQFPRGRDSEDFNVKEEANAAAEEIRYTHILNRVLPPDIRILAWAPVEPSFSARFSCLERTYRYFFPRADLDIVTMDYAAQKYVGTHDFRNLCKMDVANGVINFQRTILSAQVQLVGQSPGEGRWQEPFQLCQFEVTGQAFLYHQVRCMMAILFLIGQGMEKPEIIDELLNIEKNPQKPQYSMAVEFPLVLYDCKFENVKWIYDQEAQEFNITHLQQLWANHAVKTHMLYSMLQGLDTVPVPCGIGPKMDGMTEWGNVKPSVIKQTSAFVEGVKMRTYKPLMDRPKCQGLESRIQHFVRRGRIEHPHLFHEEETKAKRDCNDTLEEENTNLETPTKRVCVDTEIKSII
# UniProt Q9BV86: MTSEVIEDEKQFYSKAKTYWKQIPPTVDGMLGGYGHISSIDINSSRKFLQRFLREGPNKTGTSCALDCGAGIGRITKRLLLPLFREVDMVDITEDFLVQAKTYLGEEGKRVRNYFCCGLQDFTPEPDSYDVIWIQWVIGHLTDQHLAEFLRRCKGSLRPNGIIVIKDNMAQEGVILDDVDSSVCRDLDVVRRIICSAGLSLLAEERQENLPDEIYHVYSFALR
# UniProt Q9BWU0: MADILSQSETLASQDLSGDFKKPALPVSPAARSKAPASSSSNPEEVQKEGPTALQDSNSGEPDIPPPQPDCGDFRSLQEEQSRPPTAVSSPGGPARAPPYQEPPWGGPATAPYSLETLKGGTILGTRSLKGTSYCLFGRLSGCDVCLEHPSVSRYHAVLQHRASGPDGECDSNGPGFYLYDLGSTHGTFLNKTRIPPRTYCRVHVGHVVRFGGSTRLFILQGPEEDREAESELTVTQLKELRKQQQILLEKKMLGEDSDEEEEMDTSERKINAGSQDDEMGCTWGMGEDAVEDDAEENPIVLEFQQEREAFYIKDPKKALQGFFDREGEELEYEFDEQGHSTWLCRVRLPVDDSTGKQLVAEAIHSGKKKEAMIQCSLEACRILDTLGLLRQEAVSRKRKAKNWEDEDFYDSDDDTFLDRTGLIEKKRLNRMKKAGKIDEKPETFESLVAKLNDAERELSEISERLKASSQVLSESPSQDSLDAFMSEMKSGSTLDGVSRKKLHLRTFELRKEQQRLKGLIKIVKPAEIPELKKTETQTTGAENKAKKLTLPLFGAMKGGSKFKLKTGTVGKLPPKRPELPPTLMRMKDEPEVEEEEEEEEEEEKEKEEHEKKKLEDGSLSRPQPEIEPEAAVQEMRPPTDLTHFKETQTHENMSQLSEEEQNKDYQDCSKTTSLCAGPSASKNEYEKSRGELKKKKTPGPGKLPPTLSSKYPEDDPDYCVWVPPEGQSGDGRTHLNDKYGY
# UniProt Q9BVJ7: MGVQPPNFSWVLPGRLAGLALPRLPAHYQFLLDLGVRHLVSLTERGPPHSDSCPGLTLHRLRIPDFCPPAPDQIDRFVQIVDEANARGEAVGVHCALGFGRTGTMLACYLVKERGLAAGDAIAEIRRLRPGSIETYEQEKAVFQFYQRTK
# UniProt Q9BZD4: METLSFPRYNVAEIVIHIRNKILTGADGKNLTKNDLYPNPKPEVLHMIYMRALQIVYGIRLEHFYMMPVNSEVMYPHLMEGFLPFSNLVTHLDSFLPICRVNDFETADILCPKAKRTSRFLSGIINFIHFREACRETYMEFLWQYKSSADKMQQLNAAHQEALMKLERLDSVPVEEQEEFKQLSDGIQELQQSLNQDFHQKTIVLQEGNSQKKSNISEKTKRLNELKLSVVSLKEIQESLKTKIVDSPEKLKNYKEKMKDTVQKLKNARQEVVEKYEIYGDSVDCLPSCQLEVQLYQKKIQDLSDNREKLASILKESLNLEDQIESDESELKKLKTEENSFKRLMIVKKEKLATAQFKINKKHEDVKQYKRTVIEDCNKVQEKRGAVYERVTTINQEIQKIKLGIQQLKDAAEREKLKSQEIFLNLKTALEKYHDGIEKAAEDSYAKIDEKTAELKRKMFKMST
# UniProt Q9H1C7: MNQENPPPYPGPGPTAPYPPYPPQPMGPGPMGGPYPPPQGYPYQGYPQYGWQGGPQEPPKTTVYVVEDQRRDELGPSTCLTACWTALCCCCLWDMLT
# UniProt Q9BXB4: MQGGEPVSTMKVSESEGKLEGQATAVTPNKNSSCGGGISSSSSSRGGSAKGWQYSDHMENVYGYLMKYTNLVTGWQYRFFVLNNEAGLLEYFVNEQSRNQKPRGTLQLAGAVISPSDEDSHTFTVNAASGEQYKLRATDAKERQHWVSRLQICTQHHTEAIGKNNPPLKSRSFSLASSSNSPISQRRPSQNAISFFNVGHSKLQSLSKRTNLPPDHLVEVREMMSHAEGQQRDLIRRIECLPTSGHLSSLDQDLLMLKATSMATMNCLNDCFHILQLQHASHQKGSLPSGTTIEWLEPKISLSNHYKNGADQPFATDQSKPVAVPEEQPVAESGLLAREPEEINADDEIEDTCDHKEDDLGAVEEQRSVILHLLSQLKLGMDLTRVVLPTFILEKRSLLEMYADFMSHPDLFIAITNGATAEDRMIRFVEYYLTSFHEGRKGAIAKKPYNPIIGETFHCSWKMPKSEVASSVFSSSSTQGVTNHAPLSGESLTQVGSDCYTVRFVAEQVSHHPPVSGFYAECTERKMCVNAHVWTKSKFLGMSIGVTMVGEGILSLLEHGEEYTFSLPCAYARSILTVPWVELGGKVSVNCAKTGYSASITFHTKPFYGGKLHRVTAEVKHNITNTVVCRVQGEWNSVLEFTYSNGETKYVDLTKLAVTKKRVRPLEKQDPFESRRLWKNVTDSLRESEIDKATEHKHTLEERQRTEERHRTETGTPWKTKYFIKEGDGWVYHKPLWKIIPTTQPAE
# UniProt Q9BXW7: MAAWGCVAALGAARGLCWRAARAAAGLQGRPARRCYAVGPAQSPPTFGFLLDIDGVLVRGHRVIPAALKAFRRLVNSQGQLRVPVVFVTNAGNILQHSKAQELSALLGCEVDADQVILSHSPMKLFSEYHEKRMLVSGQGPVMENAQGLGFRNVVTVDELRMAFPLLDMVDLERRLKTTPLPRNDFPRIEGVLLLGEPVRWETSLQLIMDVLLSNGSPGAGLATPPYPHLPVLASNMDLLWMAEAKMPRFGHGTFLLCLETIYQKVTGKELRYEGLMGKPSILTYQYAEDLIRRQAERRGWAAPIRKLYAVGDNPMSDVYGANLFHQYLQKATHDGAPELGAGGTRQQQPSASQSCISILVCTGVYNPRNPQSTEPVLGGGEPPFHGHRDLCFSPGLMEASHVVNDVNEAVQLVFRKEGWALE
# UniProt Q9BVG8: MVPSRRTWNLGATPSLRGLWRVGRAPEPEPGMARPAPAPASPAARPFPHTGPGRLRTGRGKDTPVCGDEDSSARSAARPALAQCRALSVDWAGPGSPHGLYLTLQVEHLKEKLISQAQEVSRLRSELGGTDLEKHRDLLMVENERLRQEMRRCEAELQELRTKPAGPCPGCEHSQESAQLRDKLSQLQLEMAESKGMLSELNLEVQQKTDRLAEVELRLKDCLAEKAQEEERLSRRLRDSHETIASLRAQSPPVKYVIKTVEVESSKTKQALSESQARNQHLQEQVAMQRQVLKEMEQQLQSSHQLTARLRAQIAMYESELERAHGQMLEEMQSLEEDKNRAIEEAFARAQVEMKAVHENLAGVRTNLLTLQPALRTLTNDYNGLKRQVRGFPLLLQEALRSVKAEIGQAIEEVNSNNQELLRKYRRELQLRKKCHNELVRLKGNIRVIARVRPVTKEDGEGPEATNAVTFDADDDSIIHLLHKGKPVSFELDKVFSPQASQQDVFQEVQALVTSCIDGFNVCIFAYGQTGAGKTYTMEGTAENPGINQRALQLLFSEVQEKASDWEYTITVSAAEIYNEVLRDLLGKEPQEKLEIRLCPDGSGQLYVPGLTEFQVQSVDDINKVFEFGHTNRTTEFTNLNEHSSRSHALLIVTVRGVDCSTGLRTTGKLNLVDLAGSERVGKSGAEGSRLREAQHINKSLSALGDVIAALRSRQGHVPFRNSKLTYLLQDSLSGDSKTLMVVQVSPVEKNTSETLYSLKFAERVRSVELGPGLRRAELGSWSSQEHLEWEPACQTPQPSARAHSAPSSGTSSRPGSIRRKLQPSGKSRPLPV
# UniProt Q9BXJ9: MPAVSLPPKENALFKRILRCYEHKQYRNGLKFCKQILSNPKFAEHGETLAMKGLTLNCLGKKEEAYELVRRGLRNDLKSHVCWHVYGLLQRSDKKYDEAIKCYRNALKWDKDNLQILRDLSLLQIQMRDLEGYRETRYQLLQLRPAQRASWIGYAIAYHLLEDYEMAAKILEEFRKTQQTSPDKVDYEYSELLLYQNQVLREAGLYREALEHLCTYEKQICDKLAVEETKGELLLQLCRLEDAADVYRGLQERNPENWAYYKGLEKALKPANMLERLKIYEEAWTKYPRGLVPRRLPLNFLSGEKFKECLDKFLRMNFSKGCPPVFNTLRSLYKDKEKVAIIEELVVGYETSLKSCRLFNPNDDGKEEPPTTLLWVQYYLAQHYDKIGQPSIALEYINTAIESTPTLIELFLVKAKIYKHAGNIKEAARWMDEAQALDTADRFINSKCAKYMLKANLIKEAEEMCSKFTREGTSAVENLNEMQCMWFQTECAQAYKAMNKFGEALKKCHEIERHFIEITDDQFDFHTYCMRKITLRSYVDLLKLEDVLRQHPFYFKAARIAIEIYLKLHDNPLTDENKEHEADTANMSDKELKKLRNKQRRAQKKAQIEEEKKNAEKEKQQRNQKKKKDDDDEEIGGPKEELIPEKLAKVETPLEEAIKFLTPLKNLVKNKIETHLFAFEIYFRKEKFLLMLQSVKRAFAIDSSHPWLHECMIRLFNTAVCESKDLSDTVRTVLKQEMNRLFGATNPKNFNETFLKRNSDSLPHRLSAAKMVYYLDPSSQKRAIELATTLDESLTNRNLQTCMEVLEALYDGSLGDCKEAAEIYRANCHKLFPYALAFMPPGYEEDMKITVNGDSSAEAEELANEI
# UniProt Q9BXF6: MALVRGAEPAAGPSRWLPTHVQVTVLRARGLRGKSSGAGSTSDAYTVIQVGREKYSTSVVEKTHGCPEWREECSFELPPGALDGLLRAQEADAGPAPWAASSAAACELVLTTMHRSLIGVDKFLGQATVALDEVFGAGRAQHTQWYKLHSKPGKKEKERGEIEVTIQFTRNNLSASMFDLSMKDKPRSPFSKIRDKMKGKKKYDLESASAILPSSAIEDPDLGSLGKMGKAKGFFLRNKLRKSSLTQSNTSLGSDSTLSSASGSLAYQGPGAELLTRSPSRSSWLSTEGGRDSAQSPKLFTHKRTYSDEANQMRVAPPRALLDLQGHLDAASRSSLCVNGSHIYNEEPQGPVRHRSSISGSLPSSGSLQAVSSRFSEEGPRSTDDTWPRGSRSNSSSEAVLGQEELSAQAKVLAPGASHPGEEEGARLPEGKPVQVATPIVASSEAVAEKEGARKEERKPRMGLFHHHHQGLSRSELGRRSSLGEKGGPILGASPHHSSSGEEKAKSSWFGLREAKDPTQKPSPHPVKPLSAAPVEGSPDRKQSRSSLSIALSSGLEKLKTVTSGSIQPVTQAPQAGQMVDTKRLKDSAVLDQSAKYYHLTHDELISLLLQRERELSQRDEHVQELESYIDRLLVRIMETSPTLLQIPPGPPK
# The other results are listed elsewhere or left out. Most entries show no effect beyond the scatter of the controls.
# Compound: Cc1nc(Nc2ncc(C(=O)Nc3c(C)cccc3Cl)s2)cc(N2CCN(CCO)CC2)n1 [dasatinib]
# Assay: log2 fold change of tryptic peptide abundance, ligand vs vehicle (limited proteolysis) (log2 ratio); higher = more trypsin-susceptible (destabilized)
# Conditions: ligand concentration: 5 uM; sample: K562 cleared lysate
row,Target,log2 fold change
1,"CDCA4 (peptide sequence: QSLLDMSLVK, peptide start residue: 35) (UniProt Q9BXL8)",0.364
2,"UniProt Q9H0E7 (peptide sequence: RFRWSGR, peptide start residue: 555)",-0.0445
3,"SRXN1 (peptide sequence: GAQGGDYFYSFGGCHR, peptide start residue: 86) (UniProt Q9BYN0)",0.24
4,"SPATA5L1 (peptide sequence: GVLLYGPPGCAK, peptide start residue: 500) (UniProt Q9BVQ7)",-0.174
5,"PUS3 (peptide sequence: RDCNDTLEEENTNLETPTKR, peptide start residue: 451) (UniProt Q9BZE2)",0.409
6,"UniProt Q9BV86 (peptide sequence: LLLPLFR, peptide start residue: 79)",-0.206
7,"NOC4L (peptide sequence: REPTVSSFYVK, peptide start residue: 222) (UniProt Q9BVI4)",0.253
8,"AMBRA1 (peptide sequence: GQPGLATHSSVNR, peptide start residue: 825) (UniProt Q9C0C7)",-0.211
9,"SLC4A1AP (peptide sequence: KTPGPGKLPPTLSSK, peptide start residue: 751) (UniProt Q9BWU0)",0.614
10,"POLR3F (peptide sequence: SNTGLLYR, peptide start residue: 68) (UniProt Q9H1D9)",-0.0893
11,"HDHD2 (peptide sequence: TFFLEALR, peptide start residue: 183) (UniProt Q9H0R4)",-0.309
12,"PACSIN1 (peptide sequence: TEQSVTPEQQK, peptide start residue: 179) (UniProt Q9BY11)",0.00295
13,"PRKD2 (peptide sequence: STTELLPR, peptide start residue: 225) (UniProt Q9BZL6)",-0.0949
14,"DUSP23 (peptide sequence: LPAHYQFLLDLGVR, peptide start residue: 24) (UniProt Q9BVJ7)",0.399
15,"NUF2 (peptide sequence: YNVAEIVIHIR, peptide start residue: 9) (UniProt Q9BZD4)",0.202
16,"UniProt Q9C0D0 (peptide sequence: STEMEVHELSR, peptide start residue: 562)",0.307
17,"UniProt Q9H1B7 (peptide sequence: SRFEYPPPPVSLGSSSHTAR, peptide start residue: 169)",0.37
18,"UniProt Q9BW85 (peptide sequence: QAHVDFEAMLR, peptide start residue: 164)",0.0805
19,"UniProt Q9C0B2 (peptide sequence: TQAFHLR, peptide start residue: 72)",-0.212

# Random excerpt: 3 entries already listed
row,Target,log2 fold change
10,"POLR3F (peptide sequence: SNTGLLYR, peptide start residue: 68) (UniProt Q9H1D9)",-0.0893
14,"DUSP23 (peptide sequence: LPAHYQFLLDLGVR, peptide start residue: 24) (UniProt Q9BVJ7)",0.399
3,"SRXN1 (peptide sequence: GAQGGDYFYSFGGCHR, peptide start residue: 86) (UniProt Q9BYN0)",0.24

# The list goes on.

row,Target,log2 fold change
1,"CYSTM1 (peptide sequence: TTVYVVEDQRR, peptide start residue: 61) (UniProt Q9H1C7)",0.0258
2,"SETD2 (peptide sequence: NIHYYFMALKNDEIIDATQK, peptide start residue: 1601) (UniProt Q9BYW2)",0.417
3,"UniProt Q9BZR9 (peptide sequence: DWLDASQQPGHQDFYR, peptide start residue: 523)",-0.0333
4,"UniProt Q9GZU8 (peptide sequence: SSESGNSVK, peptide start residue: 161)",0.175
5,"OSBPL11 (peptide sequence: VVLPTFILEKR, peptide start residue: 386) (UniProt Q9BXB4)",-0.426
6,"UniProt Q9BXW7 (peptide sequence: GWAAPIRK, peptide start residue: 300)",0.123
7,"CARD11 (peptide sequence: LLTEKQEELDPESELGK, peptide start residue: 940) (UniProt Q9BXL7)",-0.203
8,"GNB1L (peptide sequence: LCLWDLAEGR, peptide start residue: 92) (UniProt Q9BYB4)",-0.193
9,"ELOVL1 (peptide sequence: ALQQNGAPGIAK, peptide start residue: 264) (UniProt Q9BW60)",0.035
10,"TRMT61B (peptide sequence: KDHHDLAKK, peptide start residue: 281) (UniProt Q9BVS5)",0.0616
11,"UniProt Q9H019 (peptide sequence: IGTNLPLKPCAR, peptide start residue: 28)",-0.256
12,"KIFC3 (peptide sequence: AHGQMLEEMQSLEEDKNR, peptide start residue: 324) (UniProt Q9BVG8)",0.62
13,"UniProt Q9BXJ9 (peptide sequence: LFNTAVCESKDLSDTVR, peptide start residue: 715)",0.226
14,"ARHGAP39 (peptide sequence: SHNVDLPESR, peptide start residue: 11) (UniProt Q9C0H5)",1.04
15,"CCDC8 (peptide sequence: PKINWASFRR, peptide start residue: 267) (UniProt Q9H0W5)",0.696
16,"ANKRD30B (peptide sequence: LLAAAGK, peptide start residue: 4) (UniProt Q9BXX2)",0.0476
17,"UniProt Q9BYV8 (peptide sequence: HIGNPEYLMK, peptide start residue: 6)",0.228
18,"RAB11FIP5 (peptide sequence: TYSDEANQMR, peptide start residue: 305) (UniProt Q9BXF6)",-0.163
19,"ITPA (peptide sequence: KIVFVTGNAK, peptide start residue: 9) (UniProt Q9BY32)",-0.333
